In patent US7550425B2 (Zealand Pharma A/S, priority 2000, dated 2009):

experiment: general procedure: Fmoc solid-phase peptide synthesis; TentaGel S RAM, TentaGel S RAM-Lys(Boc)Fmoc (0.22-0.31 mmol/g); preformed Fmoc-protected HObt esters (3 eq.); settings: purification step, acetate salt

Substance | final HPLC purity [%]
Ac-RYYRWKKKKKKK-NH2 | 98

same assay, conditions: purification step, chloride salt

Substance | final HPLC purity [%]
Ac-Arg-Tyr-Tyr-Arg-Trp-Lys-Lys-Lys-Lys-Lys-Lys-Lys-NH2 (SEQ ID NO: 35)×9 HCl (chloride salt) | 97

same assay, conditions: whole synthesis, scale of the general procedure 1 g resin, 0.23-0.24 mmol/g, trifluoroacetate salt

Substance | final HPLC purity
Ac-RYYRWKKKKKKKC-NH2 | better than 91%
PEPTIDE1{[ac].[dK].[dK].[dK].[dK].[dK].[dK].[dK].[dW].[dR].[dY].[dY].[dR].[am]}$$$$V2.0 | better than 98%
H-CAPPSKKKKKK-NH2 | better than 98%
Ac-KKKKKKKWRYYR-NH2 | better than 98%
Tfa-RYYRWKKKKKKK-NH2 | better than 96%
H-CKKKKKK-NH2 | better than 90%
Ac-D-Arg-D-Tyr-D-Tyr-D-Arg-D-Trp-D-Lys-D-Lys-D-Lys-D-Lys-D-Lys-D-Lys-D-Lys-NH2 | better than 97%
Ac-RYNRWKKKKKKK-NH2 | better than 98%
Ac-RYYRWKC-NH2 | better than 94%
Ac-KKKKKKKWRYYN-NH2 | better than 99%
Ac-RYYRWK-NH2 | better than 97%
Ac-KYYRWKKKKKKK-NH2 | better than 96%
Ac-RYYRIKKKKKKK-NH2 | better than 97%
Ac-RYYRWKAKKKKK-NH2 | better than 96%
Ac-KKKKKKRYYRWK-NH2 | better than 93%
Ac-RYYRWKKKKKK-NH2 | better than 98%
H-NEEEEERYYRWKKKKKKK-NH2 | better than 98%
Ac-RYYRWKKKKKKK-NH2 | better than 95%

Some peptides are written in HELM: one residue between dots, names in brackets for other building blocks, links after the first $. * marks the point of attachment. Tfa = O=C(C(F)(F)F)*
